The values below come from PMC4070648.

Chains of the proteins cited; added tags and fusions are not shown.
UniProt Q9UGN5: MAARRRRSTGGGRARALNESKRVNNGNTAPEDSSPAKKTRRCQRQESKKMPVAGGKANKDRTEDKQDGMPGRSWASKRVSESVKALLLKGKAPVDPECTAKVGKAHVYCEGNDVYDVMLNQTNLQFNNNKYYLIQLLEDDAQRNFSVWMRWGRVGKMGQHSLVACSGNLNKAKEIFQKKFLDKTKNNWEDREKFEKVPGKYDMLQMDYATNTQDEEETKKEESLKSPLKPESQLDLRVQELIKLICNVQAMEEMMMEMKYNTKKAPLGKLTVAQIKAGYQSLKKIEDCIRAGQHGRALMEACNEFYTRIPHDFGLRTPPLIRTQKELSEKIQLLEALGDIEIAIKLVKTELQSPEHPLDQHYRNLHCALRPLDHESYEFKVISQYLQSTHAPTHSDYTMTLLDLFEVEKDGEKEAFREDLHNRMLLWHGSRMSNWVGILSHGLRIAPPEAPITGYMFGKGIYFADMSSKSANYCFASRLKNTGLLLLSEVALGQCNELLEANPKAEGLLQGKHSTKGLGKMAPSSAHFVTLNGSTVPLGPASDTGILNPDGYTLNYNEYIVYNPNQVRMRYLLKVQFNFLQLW
UniProt Q9H0J9: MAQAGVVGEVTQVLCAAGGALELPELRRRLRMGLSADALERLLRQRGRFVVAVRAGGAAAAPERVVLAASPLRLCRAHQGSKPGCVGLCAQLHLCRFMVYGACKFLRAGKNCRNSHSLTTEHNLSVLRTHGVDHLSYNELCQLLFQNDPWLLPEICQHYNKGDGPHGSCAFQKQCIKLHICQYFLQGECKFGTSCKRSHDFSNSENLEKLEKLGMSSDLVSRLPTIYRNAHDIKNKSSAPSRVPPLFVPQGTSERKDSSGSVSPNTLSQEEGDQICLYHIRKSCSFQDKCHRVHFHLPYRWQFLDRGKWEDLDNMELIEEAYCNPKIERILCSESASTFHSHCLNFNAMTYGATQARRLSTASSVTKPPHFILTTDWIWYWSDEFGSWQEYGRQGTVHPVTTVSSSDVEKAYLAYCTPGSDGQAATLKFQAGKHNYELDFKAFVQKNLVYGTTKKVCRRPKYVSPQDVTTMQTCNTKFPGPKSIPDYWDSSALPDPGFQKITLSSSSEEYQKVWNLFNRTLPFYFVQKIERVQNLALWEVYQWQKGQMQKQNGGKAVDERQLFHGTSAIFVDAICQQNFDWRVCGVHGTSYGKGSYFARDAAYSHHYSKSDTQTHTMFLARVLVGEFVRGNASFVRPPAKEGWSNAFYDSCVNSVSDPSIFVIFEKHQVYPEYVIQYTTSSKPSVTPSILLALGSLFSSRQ
UniProt Q7Z2W4: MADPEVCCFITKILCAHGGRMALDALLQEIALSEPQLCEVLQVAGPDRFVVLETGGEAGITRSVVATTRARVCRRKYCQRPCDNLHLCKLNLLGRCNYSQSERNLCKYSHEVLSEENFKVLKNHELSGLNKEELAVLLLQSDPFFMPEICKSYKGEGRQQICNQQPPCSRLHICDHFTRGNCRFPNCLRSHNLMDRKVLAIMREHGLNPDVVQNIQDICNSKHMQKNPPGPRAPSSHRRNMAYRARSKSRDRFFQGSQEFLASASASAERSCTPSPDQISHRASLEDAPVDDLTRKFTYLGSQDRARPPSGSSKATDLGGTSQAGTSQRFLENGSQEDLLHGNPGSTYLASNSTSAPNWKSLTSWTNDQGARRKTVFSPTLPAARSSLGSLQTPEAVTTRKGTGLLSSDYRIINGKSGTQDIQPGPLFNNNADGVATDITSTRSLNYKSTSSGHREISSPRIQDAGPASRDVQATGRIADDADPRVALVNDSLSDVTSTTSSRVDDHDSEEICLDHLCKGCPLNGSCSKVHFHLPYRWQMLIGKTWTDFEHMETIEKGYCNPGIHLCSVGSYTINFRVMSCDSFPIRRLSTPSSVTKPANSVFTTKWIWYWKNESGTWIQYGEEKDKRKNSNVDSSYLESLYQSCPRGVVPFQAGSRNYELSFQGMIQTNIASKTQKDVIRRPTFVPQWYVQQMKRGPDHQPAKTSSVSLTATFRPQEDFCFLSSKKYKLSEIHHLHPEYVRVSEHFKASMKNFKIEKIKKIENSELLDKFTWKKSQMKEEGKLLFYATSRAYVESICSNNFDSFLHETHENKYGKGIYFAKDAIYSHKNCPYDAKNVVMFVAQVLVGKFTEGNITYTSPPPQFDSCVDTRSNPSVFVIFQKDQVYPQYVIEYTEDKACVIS
UniProt P42224: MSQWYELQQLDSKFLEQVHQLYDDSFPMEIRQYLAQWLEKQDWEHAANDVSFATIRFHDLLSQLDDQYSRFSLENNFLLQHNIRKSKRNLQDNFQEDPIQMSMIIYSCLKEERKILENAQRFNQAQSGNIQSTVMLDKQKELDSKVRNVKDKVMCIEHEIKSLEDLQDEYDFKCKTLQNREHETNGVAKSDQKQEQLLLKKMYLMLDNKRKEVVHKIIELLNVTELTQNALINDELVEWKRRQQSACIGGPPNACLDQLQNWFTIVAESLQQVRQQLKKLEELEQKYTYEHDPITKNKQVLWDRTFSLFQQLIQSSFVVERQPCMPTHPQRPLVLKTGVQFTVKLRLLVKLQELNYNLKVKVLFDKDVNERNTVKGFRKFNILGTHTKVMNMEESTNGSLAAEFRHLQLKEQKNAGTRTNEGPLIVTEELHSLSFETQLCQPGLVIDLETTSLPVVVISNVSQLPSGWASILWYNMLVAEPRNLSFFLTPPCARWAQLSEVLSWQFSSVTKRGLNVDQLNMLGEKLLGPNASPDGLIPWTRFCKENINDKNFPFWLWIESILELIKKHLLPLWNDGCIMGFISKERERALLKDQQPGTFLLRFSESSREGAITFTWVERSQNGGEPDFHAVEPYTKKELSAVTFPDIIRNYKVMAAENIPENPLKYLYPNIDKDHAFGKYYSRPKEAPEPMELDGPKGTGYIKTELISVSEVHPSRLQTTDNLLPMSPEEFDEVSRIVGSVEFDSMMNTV

No constants are given. Whether binding was seen depends on the method and setting. Binding seen in cells or lysates may run through a third protein. Some results given as binding are weak or reduced against the parent protein; the word gives no strength.

Assay [1] deals with mono-ADP-ribosyltransferase ARTD8 (human (endogenous in PC3)) (UniProt Q460N5). The experiment in a line: co-IP; endogenous ARTD8 complexes precipitated from PC3 cell extracts with epitope affinity purified anti-ARTD8 antibodies; no ADP-ribose added; immunoblot. (A western blot detects proteins with antibodies after separation by electrophoresis.)
Assay [2] has as its target diphtheria-toxin-like macrodomain containing ADP-ribosyltransferase-9 (ARTD9) (human (endogenous in PC3)) (UniProt Q8IXQ6). The experiment in a line: co-IP; endogenous ARTD9 complexes precipitated from PC3 cell extracts with anti-ARTD9 antibody covalently coupled to tosyl-activated Dynabeads; cells stimulated 1 h with IFNγ (200 U/ml) in Figure 2H and S5E; no ADP-ribose added; immunoblot.

Assay [3] has the same target. Put plainly: co-IP; endogenous complexes precipitated from nuclear extracts of PC3 cells with anti-ARTD9 antibodies; immunoblot.

With ARTD1 (from UniProt P09874 1-1014), the results for the binding entry in assay [1] and in assay [2] were “binds” and “binds weakly”, respectively. In the case of ARTD2 (from UniProt Q9UGN5 1-583), the binding result in assay [2] is recorded as “no binding”. Consider ARTD12 (from UniProt Q9H0J9 1-701), for which the binding entry in assay [2] was “binds”. As to ARTD13 (from UniProt Q7Z2W4 1-902), the binding result in assay [2] was “binds”. With STAT1 (from UniProt P42224 1-750), the binding result in assay [3] is “binds”. On to “diphtheria-toxin-like macrodomain containing ADP-ribosyltransferase-9 (ARTD9) (from UniProt Q8IXQ6 1-854) (other; other documents disagree on this pair)”, for which the binding result in assay [1] is “binds”.
